Source: paper PMC3805573, “Methylglyoxal Evokes Pain by Stimulating TRPA1” (PLoS ONE, 2013)

Test system: TRPA1
Assay: Excised inside-out patches, TRPA1 channel activity
Type: cell-based
Settings: TRPA1 channels activated by methylglyoxal, inside-out patch
Experimental: DRG neurons and TRPA1 CHO cells were studied under voltage-clamp conditions using an Axopatch 200B amplifier and pClamp 10.0 software (Molecular Devices, Sunnyvale, CA). Except where stated otherwise, whole cell recordings were performed at a holding potential of –60 mV using an extracellular solution with the composition described above for [Ca^2+]i measurements. Borosilicate glass pipettes (2–5 MΩ, 75–80% series resistance compensation) were filled with (in mM) 140 KCl, 1 CaCl2, 2 MgATP, 10 EGTA, and 10 HEPES buffered to pH 7.4 (KOH). Excised inside-out patches were recorded using a Ca^2+-free solution containing (in mM) 140 NaCl, 5 KCl, 1 MgCl2, 10 HEPES and 1 EGTA, pH 7.4 (NaOH) in the pipettes and perfused with 140 KCl, 2 MgATP, 1 EGTA, and 10 HEPES (pH 7.4). DRG neurons were studied using an intracellular solution containing (in mM) 140 CsCl, 1 CaCl2, 2 MgATP, 10 EGTA and 10 HEPES, pH 7.4 (CsOH). Drugs were applied by local microperfusion with a rapid solution changer (RSC-200, Biologic, Claix, France).

CC(=O)C=O [MG, methylglyoxal]
single channel conductance (+60 mV): 120 pS | single channel conductance (+100 mV): 150 pS | single channel conductance (-20 to -60 mV): 70-80 pS
